For at least one compound, name, drawing or mass did not settle the structure.
System: genes in AnCg, DLPFC, HC and AMY
Assay: Gene expression profiling of brain regions after lithium treatment
Assay type: in vivo, rhesus macaque monkey
Conditions: healthy rhesus macaque; genes listed in Tables 2A and 2B

For `[Li]` [lithium], the “gene expression response to treatment” value was “differentially expressed”.

Reference: patent publication US20090019557A1, “FGF2-RELATED METHODS FOR DIAGNOSING AND TREATING DEPRESSION” (priority 2005, published 2009)
